Assay results as given in paper PMC1779304.
Results are given in words; binding and its absence hold for the method and conditions named. Binding seen in cells or lysates may run through a third protein. Some entries that bind do so weakly or less than the wild type. Tags and fused reporters may be left off the sequences shown.

Molecular target: T1, Smc1-TAP (wild-type Smc1) (S. cerevisiae) (UniProt P32908)
T1 sequence: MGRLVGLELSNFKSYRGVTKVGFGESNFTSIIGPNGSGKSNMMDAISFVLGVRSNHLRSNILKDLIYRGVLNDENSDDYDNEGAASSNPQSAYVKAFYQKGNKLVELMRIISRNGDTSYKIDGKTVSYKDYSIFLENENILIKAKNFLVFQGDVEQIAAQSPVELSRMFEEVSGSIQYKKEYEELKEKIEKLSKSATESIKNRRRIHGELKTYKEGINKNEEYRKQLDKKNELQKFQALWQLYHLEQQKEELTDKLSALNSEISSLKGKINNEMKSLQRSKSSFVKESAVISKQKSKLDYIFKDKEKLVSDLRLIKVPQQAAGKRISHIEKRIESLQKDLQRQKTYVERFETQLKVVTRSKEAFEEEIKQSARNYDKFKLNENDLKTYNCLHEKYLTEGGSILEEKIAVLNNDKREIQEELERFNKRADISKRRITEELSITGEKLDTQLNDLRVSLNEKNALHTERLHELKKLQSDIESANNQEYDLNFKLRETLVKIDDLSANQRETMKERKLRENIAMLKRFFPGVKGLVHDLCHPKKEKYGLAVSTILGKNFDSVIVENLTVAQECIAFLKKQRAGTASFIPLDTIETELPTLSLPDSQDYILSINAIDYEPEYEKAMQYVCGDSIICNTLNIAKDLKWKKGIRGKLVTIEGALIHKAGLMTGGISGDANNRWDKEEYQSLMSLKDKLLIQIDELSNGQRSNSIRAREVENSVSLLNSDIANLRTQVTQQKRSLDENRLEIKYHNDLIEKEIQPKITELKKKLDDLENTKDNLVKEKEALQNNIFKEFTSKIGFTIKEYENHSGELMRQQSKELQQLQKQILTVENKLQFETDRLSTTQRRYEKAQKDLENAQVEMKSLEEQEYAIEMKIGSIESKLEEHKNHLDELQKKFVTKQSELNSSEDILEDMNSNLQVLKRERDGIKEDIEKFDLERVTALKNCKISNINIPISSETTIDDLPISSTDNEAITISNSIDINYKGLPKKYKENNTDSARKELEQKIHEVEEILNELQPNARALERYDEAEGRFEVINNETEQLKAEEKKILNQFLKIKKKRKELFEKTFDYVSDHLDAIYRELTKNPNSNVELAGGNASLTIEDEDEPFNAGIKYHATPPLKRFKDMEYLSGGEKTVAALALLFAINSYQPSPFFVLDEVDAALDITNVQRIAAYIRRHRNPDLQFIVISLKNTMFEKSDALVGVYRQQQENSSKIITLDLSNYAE
Experiment: co-IP; Smc1-TAP proteins immunoprecipitated from yeast protein extracts (cells grown under repressing conditions, YEP-D, physiological levels of Smc1 proteins); SDS-PAGE, immunoblots for Smc1-TAP, Mcd1-6HA and Smc3-12MYC

binding: binds
B1: Smc3-12MYC (protein, UniProt P47037 1-1230)
chain: MYIKRVIIKGFKTYRNETIIDNFSPHQNVIIGSNGSGKSNFFAAIRFVLSDDYSNLKREERQGLIHQGSGGSVMSASVEIVFHDPDHSMILPSGVLSRGDDEVTIRRTVGLKKDDYQLNDRNVTKGDIVRMLETAGFSMNNPYNIVPQGKIVALTNAKDKERLQLLEDVVGAKSFEVKLKASLKKMEETEQKKIQINKEMGELNSKLSEMEQERKELEKYNELERNRKIYQFTLYDRELNEVINQMERLDGDYNNTVYSSEQYIQELDKREDMIDQVSKKLSSIEASLKIKNATDLQQAKLRESEISQKLTNVNVKIKDVQQQIESNEEQRNLDSATLKEIKSIIEQRKQKLSKILPRYQELTKEEAMYKLQLASLQQKQRDLILKKGEYARFKSKDERDTWIHSEIEELKSSIQNLNELESQLQMDRTSLRKQYSAIDEEIEELIDSINGPDTKGQLEDFDSELIHLKQKLSESLDTRKELWRKEQKLQTVLETLLSDVNQNQRNVNETMSRSLANGIINVKEITEKLKISPESVFGTLGELIKVNDKYKTCAEVIGGNSLFHIVVDTEETATLIMNELYRMKGGRVTFIPLNRLSLDSDVKFPSNTTTQIQFTPLIKKIKYEPRFEKAVKHVFGKTIVVKDLGQGLKLAKKHKLNAITLDGDRADKRGVLTGGYLDQHKRTRLESLKNLNESRSQHKKILEELDFVRNELNDIDTKIDQVNGNIRKVSNDRESVLTNIEVYRTSLNTKKNEKLILEESLNAIILKLEKLNTNRTFAQEKLNTFENDLLQEFDSELSKEEKERLESLTKEISAAHNKLNITSDALEGITTTIDSLNAELESKLIPQENDLESKMSEVGDAFIFGLQDELKELQLEKESVEKQHENAVLELGTVQREIESLIAEETNNKKLLEKANNQQRLLLKKLDNFQKSVEKTMIKKTTLVTRREELQQRIREIGLLPEDALVNDFSDITSDQLLQRLNDMNTEISGLKNVNKRAFENFKKFNERRKDLAERASELDESKDSIQDLIVKLKQQKVNAVDSTFQKVSENFEAVFERLVPRGTAKLIIHRKNDNANDHDESIDVDMDAESNESQNGKDSEIMYTGVSISVSFNSKQNEQLHVEQLSGGQKTVCAIALILAIQMVDPASFYLFDEIDAALDKQYRTAVATLLKELSKNAQFICTTFRTDMLQVADKFFRVKYENKISTVIEVNREEAIGFIRGSNKFAEV
